According to publication PMC5366950:
These are yes or no findings as the source states them, for the method shown. Binding seen in cells or lysates may run through a third protein. Some results given as binding are weak or reduced against the parent protein; the word gives no strength.

Sequences of proteins named here, by UniProt entry; tags and fusion partners are left off.
UniProt Q4ACU6: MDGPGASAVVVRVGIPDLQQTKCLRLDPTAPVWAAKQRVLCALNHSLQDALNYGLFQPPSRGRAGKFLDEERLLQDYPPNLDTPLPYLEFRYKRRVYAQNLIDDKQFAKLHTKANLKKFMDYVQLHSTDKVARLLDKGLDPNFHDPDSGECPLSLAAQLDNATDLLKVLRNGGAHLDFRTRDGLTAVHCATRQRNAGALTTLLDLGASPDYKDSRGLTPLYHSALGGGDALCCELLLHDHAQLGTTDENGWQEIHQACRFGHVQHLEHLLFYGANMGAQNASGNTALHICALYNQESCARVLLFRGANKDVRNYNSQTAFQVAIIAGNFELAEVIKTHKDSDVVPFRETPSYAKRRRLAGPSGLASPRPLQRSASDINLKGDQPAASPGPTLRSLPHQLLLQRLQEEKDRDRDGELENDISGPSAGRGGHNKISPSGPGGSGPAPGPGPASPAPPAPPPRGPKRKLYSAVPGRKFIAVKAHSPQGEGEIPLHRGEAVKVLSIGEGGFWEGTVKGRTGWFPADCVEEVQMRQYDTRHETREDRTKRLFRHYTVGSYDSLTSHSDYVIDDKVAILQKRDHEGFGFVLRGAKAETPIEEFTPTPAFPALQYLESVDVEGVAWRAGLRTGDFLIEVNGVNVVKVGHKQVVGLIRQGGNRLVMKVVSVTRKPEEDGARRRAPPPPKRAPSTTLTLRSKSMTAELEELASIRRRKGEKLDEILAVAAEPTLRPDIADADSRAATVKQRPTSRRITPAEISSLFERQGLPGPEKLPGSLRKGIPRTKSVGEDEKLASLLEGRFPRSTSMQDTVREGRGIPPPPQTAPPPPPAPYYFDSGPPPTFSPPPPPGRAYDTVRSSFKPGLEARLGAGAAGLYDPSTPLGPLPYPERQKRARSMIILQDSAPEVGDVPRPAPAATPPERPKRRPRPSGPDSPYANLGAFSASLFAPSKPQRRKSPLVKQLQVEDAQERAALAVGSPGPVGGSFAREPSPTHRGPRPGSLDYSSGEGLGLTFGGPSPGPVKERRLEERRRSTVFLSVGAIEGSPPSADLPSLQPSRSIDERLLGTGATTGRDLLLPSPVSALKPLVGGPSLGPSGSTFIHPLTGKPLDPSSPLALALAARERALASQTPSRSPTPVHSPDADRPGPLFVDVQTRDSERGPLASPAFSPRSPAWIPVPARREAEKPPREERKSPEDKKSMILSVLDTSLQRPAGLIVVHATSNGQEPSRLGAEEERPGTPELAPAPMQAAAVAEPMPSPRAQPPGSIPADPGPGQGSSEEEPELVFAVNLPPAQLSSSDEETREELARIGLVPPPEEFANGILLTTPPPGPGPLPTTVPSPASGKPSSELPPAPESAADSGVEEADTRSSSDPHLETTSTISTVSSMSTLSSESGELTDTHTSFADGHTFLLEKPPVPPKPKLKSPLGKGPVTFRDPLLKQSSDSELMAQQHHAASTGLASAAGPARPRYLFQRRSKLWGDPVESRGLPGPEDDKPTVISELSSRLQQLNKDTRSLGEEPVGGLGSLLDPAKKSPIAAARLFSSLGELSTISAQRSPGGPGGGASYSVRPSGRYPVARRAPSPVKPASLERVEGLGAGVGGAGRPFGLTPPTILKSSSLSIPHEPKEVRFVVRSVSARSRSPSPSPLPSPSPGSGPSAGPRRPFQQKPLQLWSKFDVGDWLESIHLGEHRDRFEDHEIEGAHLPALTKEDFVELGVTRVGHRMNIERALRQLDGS
UniProt Q9BYB0: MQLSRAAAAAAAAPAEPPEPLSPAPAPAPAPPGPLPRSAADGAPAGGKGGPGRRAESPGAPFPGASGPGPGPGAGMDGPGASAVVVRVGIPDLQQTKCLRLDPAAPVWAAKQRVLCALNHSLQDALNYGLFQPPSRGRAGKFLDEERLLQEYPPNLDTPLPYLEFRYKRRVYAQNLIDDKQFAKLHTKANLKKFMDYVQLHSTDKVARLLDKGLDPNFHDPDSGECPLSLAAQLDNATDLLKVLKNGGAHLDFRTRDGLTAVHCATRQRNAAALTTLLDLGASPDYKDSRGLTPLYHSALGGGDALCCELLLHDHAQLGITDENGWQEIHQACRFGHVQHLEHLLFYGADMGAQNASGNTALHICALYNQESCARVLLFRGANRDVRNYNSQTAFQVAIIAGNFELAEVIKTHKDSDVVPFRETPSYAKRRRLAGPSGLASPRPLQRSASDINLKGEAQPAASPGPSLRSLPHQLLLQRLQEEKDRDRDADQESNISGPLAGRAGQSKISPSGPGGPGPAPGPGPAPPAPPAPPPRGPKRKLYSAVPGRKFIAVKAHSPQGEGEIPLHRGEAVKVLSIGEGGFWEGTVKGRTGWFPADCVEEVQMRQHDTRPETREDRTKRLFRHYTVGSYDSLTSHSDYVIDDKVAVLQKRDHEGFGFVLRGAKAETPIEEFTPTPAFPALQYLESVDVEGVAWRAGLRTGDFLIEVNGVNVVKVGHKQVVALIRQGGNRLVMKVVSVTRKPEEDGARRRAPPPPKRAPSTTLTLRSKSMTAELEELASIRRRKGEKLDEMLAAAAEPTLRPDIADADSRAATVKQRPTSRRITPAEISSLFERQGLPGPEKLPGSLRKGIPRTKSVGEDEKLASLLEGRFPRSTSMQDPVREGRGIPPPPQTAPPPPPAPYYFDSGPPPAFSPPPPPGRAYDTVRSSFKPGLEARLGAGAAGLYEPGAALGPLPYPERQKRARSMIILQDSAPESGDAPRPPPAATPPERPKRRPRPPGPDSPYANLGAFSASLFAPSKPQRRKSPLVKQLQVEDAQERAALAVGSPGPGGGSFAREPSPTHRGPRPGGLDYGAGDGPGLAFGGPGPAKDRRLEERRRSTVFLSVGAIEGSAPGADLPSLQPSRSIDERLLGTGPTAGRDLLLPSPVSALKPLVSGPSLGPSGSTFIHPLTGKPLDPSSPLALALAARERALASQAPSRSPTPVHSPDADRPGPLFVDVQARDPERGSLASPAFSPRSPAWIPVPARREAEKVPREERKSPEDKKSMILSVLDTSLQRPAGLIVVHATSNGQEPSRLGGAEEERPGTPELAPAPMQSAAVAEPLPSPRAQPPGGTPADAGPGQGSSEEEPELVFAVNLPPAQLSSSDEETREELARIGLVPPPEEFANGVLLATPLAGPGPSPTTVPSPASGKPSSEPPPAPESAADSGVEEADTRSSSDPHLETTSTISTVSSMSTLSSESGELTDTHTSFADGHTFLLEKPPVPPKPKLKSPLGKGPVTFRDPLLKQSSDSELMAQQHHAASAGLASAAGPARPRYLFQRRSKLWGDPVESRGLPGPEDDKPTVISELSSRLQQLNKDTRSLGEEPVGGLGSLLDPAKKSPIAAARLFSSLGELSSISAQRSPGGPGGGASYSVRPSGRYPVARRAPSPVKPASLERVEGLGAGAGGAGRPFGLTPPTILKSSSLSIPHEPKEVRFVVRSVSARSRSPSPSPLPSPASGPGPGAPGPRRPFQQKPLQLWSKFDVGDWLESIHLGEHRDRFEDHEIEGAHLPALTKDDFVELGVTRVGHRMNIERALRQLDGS

Experiments:
[1] = biological target: SHANK3 (mouse GI epithelium) (mouse (endogenous in GI epithelium)) (UniProt Q4ACU6); test: co-IP; protein lysate from mouse GI epithelium; 10 ul SHANK3 antibody serum, uMACS columns and Protein G MicroBeads; blots with anti-ZIP4 and anti-ZIP2; control without SHANK3 antibody on the beads
[2] = biological target: SHANK3 (SH3 and multiple ankyrin repeat domains 3) (human (endogenous in hiPSC-derived enterocytes)) (UniProt Q9BYB0); test: co-IP; lysate of hiPSC-derived enterocyte-like cells (Triton X Lysis Buffer, 30 min on ice); 10 ul SHANK3 antibody serum, uMACS columns and Protein G MicroBeads; blots with anti-ZIP4 and anti-ZIP2; control without SHANK3 antibody on the beads

binding [1] | binding [2] | Binder
binds |  | ZIP4 (mouse GI epithelium) (protein, UniProt Q78IQ7 23-660) RPRNLLSLLALGQGALDRLELDGLLNTLVARVHCTDGPCEKCLSVENVLALGKPDKPQPAPESVLESRHIIYLSAAAALYLNNPEKTCKDIQAGLLASHVDDYLATLESPEAMTLGLSQLLQKIEAHAASQPTGEKTCVDLPQLLEEAEAAGVSKSAGLVLTALLDHVINGSCFQGLPSPQYFVDFVFRLHSSDPPNITLHELENLMHHLGVGGEDHSDHDDHGDHADHSHPDRKASHQDSELHTPHNSNSSVWDTLCLSAKDIMAVYGLSEEAGVSPQAWAQLTPALVQQQLSGACSPYPTIRIQDQLSQTERYLYGSLATLLICLCAVFGLLLLTCAKCSTATHYIMQTFLSLAVGALTGDALLHLIPKVLGLHTHGGEGHTHEEEVGVGGQATWRLLAVLGGFYIFFLFESFFNLLLPRDQDSEKDGPCSHGGHSHGISLQLAPSNLRQSKQTHESSRSDLVAEETPELLNPETRRLRAELRLLPYLITLGDAVHNFADGLAVGAAFSSSWKTGLATSLAVFCHELPHELGDFAALLHAGLSVKRALLLNLASALTAFAGLYVALAVGVGEEGEAWILAVATGLFLYVALCDMLPAMMNVRDQRPWLLFLLHNVGLLGGWTVLLLLSLYEDNITF
binds weakly |  | ZIP2 (mouse GI epithelium) (protein, UniProt G3X943 1-309) MEVLLGVKIGCLLALLVLTLGCGLTPIYVKWFQMDAATGHHHRVLSLLGCTSAGVFLGAGLMHMTAEALEGIESEIQKFVEQNSTGSKGNSSRDAASSYVEYPYGELVISLGFFFVFLLESLALQCCHGAAGGSTVQEEEWGGTHAFGFHKHPAVPSPSRGPLRALVLLLSLSFHSVFEGLAVGLQATVAATIQLCVAVLAHKGLVVFSVGLRLGKIGTGPRWATFCILSLALMSPVGLALGLTVAGGASGQTQGLAQAVLEGIAAGTFLYVTFLEILPRELACPEAPLAKYSCVAAGFAFMALIALWA
 | binds | ZIP4 (SLC39A4) (protein, UniProt Q6P5W5 23-647) SPPAGLLSLLTSGQGALDQEALGGLLNTLADRVHCANGPCGKCLSVEDALGLGEPEGSGLPPGPVLEARYVARLSAAAVLYLSNPEGTCEDARAGLWASHADHLLALLESPKALTPGLSWLLQRMQARAAGQTPKMACVDIPQLLEEAVGAGAPGSAGGVLAALLDHVRSGSCFHALPSPQYFVDFVFQQHSSEVPMTLAELSALMQRLGVGREAHSDHSHRHRGASSRDPVPLISSSNSSSVWDTVCLSARDVMAAYGLSEQAGVTPEAWAQLSPALLQQQLSGACTSQSRPPVQDQLSQSERYLYGSLATLLICLCAVFGLLLLTCTGCRGVTHYILQTFLSLAVGAVTGDAVLHLTPKVLGLHTHSEEGLSPQPTWRLLAMLAGLYAFFLFENLFNLLLPRDPEDLEDGPCGHSSHSHGGHSHGVSLQLAPSELRQPKPPHEGSRADLVAEESPELLNPEPRRLSPELRLLPYMITLGDAVHNFADGLAVGAAFASSWKTGLATSLAVFCHELPHELGDFAALLHAGLSVRQALLLNLASALTAFAGLYVALAVGVSEESEAWILAVATGLFLYVALCDMLPAMLKVRDPRPWLLFLLHNVGLLGGWTVLLLLSLYEDDITF
